# Data: the supplement of paper PMC11006884
# Amino acid sequences for entries named in this document (tags omitted). A change or cut given only in a name is not applied to a line headed by its entry.
# UniProt Q6AI12: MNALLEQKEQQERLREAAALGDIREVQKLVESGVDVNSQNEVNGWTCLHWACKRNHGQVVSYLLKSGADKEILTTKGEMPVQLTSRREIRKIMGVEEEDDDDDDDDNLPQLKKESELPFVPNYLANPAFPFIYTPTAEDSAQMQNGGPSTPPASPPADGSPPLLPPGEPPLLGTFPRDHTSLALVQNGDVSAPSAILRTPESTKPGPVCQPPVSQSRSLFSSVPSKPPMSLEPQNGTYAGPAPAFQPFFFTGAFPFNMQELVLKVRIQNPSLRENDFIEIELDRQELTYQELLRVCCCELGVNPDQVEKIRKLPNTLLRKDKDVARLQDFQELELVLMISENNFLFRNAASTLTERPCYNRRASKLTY
# UniProt Q6P1X5, whole entry: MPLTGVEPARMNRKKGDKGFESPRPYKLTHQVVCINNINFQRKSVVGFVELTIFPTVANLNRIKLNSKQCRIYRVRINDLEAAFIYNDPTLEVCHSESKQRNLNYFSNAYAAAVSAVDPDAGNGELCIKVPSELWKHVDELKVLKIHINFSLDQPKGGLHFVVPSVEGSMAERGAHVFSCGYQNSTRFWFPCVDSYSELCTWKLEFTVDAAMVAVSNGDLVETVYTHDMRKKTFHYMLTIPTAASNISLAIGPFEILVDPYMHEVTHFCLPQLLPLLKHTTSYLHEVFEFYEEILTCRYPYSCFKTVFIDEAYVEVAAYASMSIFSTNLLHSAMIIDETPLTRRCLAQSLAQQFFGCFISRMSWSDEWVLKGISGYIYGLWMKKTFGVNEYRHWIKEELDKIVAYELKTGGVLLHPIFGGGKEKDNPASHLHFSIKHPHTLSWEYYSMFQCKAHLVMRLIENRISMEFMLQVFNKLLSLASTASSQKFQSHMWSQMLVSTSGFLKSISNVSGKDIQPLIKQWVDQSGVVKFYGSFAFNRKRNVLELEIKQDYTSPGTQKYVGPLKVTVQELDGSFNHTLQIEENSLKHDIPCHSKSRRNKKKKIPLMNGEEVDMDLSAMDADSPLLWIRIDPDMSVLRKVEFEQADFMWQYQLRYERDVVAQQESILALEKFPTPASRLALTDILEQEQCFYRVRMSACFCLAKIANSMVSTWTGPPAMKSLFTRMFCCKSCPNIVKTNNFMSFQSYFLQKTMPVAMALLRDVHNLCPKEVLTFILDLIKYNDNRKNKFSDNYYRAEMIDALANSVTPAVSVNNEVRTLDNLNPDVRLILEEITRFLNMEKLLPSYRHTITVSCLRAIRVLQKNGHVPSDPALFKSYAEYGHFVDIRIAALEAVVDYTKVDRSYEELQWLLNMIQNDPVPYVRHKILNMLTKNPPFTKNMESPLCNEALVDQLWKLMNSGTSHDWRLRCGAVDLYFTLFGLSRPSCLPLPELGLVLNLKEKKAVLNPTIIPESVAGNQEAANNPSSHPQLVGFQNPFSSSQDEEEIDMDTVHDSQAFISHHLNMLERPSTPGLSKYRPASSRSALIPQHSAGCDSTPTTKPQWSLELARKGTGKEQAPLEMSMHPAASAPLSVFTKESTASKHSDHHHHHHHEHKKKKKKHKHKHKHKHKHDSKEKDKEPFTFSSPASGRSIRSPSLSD
# UniProt Q5JTZ9, whole entry, looked up: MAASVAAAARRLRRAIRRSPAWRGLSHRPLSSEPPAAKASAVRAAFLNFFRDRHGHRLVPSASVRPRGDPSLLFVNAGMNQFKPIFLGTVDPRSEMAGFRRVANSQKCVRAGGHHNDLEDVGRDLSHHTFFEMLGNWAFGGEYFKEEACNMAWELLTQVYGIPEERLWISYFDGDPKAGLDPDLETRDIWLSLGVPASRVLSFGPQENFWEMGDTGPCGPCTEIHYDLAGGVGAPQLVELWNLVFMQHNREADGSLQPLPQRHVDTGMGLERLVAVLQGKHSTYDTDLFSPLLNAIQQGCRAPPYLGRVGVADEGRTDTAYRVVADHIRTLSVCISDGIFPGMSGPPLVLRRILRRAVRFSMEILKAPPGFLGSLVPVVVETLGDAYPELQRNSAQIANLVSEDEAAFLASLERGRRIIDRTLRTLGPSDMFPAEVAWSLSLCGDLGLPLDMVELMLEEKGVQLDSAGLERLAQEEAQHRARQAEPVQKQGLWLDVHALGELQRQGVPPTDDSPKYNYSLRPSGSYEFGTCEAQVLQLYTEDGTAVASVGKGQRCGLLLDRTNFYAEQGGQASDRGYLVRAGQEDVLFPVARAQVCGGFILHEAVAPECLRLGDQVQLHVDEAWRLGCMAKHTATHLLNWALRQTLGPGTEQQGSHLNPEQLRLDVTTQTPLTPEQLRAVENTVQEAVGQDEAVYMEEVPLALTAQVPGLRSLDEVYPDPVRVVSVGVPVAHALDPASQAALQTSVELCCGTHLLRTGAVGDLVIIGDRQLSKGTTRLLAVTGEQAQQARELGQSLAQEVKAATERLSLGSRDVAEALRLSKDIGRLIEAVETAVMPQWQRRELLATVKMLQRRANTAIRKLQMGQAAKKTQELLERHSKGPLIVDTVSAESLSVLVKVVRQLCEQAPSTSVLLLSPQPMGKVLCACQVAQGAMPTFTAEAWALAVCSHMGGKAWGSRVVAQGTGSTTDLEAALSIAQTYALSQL
# UniProt Q5FWF4: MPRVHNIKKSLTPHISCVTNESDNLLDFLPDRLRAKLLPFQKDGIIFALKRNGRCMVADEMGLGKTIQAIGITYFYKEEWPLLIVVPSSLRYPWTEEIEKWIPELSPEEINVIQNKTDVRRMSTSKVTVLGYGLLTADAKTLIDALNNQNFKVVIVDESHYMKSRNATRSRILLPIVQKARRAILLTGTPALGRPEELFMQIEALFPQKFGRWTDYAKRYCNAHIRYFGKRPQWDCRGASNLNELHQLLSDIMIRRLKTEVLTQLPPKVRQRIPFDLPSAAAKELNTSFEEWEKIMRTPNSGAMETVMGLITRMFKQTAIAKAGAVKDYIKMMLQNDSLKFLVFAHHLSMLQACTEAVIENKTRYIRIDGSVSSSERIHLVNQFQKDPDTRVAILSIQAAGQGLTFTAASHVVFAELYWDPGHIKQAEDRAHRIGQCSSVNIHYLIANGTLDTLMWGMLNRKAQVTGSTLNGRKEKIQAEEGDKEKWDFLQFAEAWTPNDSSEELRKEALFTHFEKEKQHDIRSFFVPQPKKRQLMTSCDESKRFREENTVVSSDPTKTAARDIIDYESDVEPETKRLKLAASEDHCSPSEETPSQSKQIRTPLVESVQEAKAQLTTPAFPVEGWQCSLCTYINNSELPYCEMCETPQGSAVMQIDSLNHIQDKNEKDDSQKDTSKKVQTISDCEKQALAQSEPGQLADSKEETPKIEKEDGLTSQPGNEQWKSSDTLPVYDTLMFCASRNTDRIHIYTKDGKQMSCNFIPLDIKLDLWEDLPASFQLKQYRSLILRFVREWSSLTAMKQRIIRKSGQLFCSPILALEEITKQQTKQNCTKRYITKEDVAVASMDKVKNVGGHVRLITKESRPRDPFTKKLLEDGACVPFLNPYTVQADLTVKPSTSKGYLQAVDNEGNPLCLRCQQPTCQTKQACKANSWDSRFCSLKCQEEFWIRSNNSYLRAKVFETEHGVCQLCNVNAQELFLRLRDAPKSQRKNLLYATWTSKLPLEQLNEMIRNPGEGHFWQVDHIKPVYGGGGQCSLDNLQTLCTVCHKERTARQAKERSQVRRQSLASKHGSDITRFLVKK
# UniProt Q6P4A7: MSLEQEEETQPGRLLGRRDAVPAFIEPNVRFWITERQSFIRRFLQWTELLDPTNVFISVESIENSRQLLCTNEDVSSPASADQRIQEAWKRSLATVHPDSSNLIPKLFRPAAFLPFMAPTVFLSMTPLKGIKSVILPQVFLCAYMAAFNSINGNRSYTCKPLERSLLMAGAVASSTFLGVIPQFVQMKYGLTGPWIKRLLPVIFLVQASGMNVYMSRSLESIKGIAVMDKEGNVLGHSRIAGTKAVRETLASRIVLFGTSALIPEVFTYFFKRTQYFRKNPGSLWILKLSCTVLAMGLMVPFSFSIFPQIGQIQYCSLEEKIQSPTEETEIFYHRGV
# UniProt Q6P2E9: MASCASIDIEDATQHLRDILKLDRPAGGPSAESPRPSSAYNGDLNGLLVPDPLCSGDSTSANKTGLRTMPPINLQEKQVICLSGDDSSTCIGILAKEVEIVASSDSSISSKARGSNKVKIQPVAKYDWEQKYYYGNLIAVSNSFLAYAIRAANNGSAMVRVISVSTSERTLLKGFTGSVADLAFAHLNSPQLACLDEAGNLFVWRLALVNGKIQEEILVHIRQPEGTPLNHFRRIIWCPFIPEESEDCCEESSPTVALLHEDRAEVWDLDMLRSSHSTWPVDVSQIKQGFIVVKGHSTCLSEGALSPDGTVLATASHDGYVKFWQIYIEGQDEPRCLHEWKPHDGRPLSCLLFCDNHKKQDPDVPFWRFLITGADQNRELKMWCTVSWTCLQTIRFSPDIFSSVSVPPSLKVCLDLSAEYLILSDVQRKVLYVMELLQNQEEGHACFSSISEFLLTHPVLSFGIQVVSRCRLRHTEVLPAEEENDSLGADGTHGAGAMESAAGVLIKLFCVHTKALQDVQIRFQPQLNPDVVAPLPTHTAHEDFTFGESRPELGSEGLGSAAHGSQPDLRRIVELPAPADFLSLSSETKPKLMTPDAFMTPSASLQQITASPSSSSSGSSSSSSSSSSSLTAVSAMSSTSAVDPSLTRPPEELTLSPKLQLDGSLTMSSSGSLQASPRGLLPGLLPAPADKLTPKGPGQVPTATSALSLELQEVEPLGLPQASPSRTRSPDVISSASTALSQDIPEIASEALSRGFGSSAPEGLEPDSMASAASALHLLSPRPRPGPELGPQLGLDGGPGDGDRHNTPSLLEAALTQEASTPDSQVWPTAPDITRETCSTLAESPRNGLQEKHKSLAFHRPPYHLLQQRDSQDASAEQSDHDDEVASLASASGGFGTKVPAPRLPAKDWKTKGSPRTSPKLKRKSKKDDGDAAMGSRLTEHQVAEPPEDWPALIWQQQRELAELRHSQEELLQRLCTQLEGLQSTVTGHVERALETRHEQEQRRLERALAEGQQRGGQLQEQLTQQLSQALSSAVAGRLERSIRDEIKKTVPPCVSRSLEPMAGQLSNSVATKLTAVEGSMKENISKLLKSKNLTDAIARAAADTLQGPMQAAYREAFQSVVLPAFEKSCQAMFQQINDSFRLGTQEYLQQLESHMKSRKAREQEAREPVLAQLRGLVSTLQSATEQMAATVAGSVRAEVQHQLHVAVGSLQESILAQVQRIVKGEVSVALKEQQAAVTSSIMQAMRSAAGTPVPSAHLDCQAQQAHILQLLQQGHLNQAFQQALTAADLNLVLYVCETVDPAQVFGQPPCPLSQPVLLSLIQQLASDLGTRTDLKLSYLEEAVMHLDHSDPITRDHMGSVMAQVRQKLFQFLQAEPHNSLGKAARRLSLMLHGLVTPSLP
# UniProt Q5VTE6: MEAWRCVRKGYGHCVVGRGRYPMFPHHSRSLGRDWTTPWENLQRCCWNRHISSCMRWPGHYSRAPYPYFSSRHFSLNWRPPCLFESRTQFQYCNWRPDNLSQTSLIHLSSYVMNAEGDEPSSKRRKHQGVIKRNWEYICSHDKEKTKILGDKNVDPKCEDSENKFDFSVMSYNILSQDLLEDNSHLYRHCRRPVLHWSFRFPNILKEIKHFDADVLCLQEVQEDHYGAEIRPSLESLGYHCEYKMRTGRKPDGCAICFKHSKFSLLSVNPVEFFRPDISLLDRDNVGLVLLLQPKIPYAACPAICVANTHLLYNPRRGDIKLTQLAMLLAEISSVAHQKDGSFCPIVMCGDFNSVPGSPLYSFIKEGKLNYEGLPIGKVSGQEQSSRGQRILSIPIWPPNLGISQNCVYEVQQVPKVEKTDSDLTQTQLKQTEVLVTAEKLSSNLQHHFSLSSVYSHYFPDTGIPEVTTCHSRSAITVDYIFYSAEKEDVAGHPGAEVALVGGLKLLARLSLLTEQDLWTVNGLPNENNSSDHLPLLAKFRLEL
# UniProt Q6P1R4: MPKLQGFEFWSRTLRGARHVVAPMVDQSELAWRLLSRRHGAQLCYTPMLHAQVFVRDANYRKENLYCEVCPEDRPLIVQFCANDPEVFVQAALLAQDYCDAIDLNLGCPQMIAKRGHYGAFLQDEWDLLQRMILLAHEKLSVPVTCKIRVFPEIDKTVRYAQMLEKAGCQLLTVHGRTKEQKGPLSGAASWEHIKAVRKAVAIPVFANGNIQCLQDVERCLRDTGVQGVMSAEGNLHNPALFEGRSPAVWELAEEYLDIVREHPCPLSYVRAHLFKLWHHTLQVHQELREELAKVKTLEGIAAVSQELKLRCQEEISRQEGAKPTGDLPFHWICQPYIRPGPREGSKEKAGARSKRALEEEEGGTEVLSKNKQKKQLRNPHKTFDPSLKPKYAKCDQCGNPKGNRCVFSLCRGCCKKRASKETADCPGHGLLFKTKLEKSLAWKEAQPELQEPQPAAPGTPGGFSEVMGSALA
# What follows is the remainder of the data, with few or none of the targets with a hit. This is a noisy data set. The entries are a selection whose mix differs from that of the whole data set.
# Compound: COC(=O)/C=C/c1ccccc1 [methyl cinnamate]
# Experiment: log2 ratio of iodoacetamide-alkyne labeling of the cysteine site, DMSO over compound (competition); higher = stronger covalent engagement of the cysteine by the compound, active = 1 or more
# Details: 500 µM; treatment time 1 h; system: HEK293T cell lysate
# Method in brief: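 The log2 competition ratio per cysteine is defined as mean reporter intensity in control channels over mean reporter intensity in compound channels. Lysate from HEK293T cells (2 mg/mL) received electrophile (500 µM) or vehicle for 1 h at ambient temperature, followed by iodoacetamide alkyne for 1 h. Samples were clicked to sCIP-TMT reagents, pooled, trypsin-digested overnight at 37 °C, streptavidin-enriched, acid-eluted and run on Orbitrap Eclipse LC-MS/MS with FAIMS, with quantification in FragPipe. Three replicates with duplicate channels were used, and any cysteine quantified in only one replicate was excluded.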
row,Target,log2 ratio of iodoacetamide-alkyne labeling
1,TTC37 C1280 (UniProt Q6PGP7),inactive: 0.25
2,CDKAL1 C538 (UniProt Q5VV42),inactive: 0.24
3,UniProt Q5MNZ6_C6,inactive: 0.16
4,YOD1 C97 (UniProt Q5VVQ6),inactive: 0.188
5,UniProt Q6S8J3_C965,inactive: 0.0284
6,ZNF318 C1903 (UniProt Q5VUA4),inactive: 0.567
7,WDR73 C352 (UniProt Q6P4I2),inactive: -0.453
8,ANKRD11 C1845 (UniProt Q6UB99),inactive: 0.557
9,THADA C144 (UniProt Q6YHU6),inactive: 0.159
10,UniProt Q69YN4_C781,inactive: -0.0203
11,RPRD2 C903 (UniProt Q5VT52),inactive: 0.288
12,CWF19L1 C176 (UniProt Q69YN2),inactive: -0.191
13,ANKRD40 C358 (UniProt Q6AI12),inactive: 0.328
14,TAF2 C1093 (UniProt Q6P1X5),inactive: 0.0841
15,HERC4 C60 (UniProt Q5GLZ8),inactive: 0.221
16,AARS2 C750 (UniProt Q5JTZ9),inactive: 0.0701
17,UniProt Q5W0B1_C105,inactive: 0.0199
18,UniProt Q5JSZ5_C1482,inactive: 0.161
19,UniProt Q5FWF4_C811,inactive: 0.126
20,TJAP1 C76 (UniProt Q5JTD0),inactive: 0.351
21,PDE4DIP C617 (UniProt Q5VU43),inactive: 0.318

row,Target,log2 ratio of iodoacetamide-alkyne labeling
1,ZNF746 C425 (UniProt Q6NUN9),inactive: 0.0575
2,ARID2 C1319 (UniProt Q68CP9),inactive: 0.173
3,UniProt Q6P2H3_C527,inactive: -0.0998
4,RRP12 C261 (UniProt Q5JTH9),inactive: 0.141
5,SFXN4 C70 (UniProt Q6P4A7),inactive: 0.228
6,DHX57 C65 (UniProt Q6P158),inactive: 0.109
7,RSBN1L C280 (UniProt Q6PCB5),inactive: 0.288
8,BCORL1 C617 (UniProt Q5H9F3),inactive: 0.177
9,UniProt Q63HQ0_C157,inactive: 0.312
10,RBM20 C1099 (UniProt Q5T481),inactive: 0.131
11,KANK2 C249 (UniProt Q63ZY3),inactive: 0.135
12,UniProt Q5W5X9_C428,inactive: 0.264
13,MAP1S C440 (UniProt Q66K74),inactive: -0.0266
14,ZC3H14 C712 (UniProt Q6PJT7),inactive: -0.316
15,UniProt Q6P9B6_C13,inactive: 0.605
16,EDC4 C54 (UniProt Q6P2E9),inactive: 0.286
17,ANGEL2 C158 (UniProt Q5VTE6),inactive: -0.176
18,UniProt Q6ZSZ5_C699,inactive: 0.217
19,AARS2 C596 (UniProt Q5JTZ9),inactive: -0.0626
20,EDC4 C4 (UniProt Q6P2E9),inactive: 0.023
21,SAMD4B C226 (UniProt Q5PRF9),inactive: -0.00048

row,Target,log2 ratio of iodoacetamide-alkyne labeling
1,UniProt Q5VSL9_C769,inactive: 0.359
2,NFXL1 C212 (UniProt Q6ZNB6),inactive: -0.203
3,MTHFD1L C828 (UniProt Q6UB35),inactive: -0.0577
4,INTS5 C58 (UniProt Q6P9B9),inactive: 0.0484
5,EARS2 C341 (UniProt Q5JPH6),inactive: 0.014
6,UniProt Q5H9R7_C467,inactive: -0.00292
7,UniProt Q5H9R7_C844,inactive: -0.0134
8,USP34 C741 (UniProt Q70CQ2),inactive: 0.0998
9,NCAPH2 C309 (UniProt Q6IBW4),inactive: 0.264
10,TBC1D9B C444 (UniProt Q66K14),inactive: 0.26
11,PGM2L1 C303 (UniProt Q6PCE3),inactive: 0.238
12,FNBP1L C69 (UniProt Q5T0N5),inactive: -0.183
13,ALKBH5 C267 (UniProt Q6P6C2),inactive: 0.074
14,RRP12 C102 (UniProt Q5JTH9),inactive: 0.435
15,UniProt Q5VSL9_C418,inactive: 0.181
16,NIPBL C573 (UniProt Q6KC79),inactive: 0.164
17,DUS1L C213 (UniProt Q6P1R4),inactive: -0.00588
18,UniProt Q5H9L4_C158,inactive: 0.159
19,ZC3H14 C707 (UniProt Q6PJT7),inactive: -0.316

# Nothing new here: an excerpt of the list.
row,Target,log2 ratio of iodoacetamide-alkyne labeling
17,ANGEL2 C158 (UniProt Q5VTE6),inactive: -0.176
18,UniProt Q6ZSZ5_C699,inactive: 0.217
19,AARS2 C596 (UniProt Q5JTZ9),inactive: -0.0626
20,EDC4 C4 (UniProt Q6P2E9),inactive: 0.023
21,SAMD4B C226 (UniProt Q5PRF9),inactive: -0.00048
